{"source": "patent US6663881B2", "about": "(priority 1993, dated 2003)", "system": "Vascular smooth muscle (BO54) cells", "format": "cell-based, baboon"}
{"smiles": "CN[C@@H]1C[C@H]2O[C@@](C)([C@@H]1OC)n1c3ccccc3c3c4c(c5c6ccccc6n2c5c31)C(=O)NC4", "note": "[staurosporin]", "values": [{"measurement": "DNA synthesis inhibition compared with protein synthesis inhibition", "result": "to a greater extent than they inhibited protein synthesis"}]}
